Data taken from patent US20240376207A1.
No constants are given. Whether binding was seen depends on the method and setting. Some results given as binding are weak or reduced against the parent protein; the word gives no strength.

B1: anti-PVRIG antibody 38 (antibody, human IgG4 S228P, F234A L235A, V domains shown)
VH: QVQLVESGGGSVQAGGSLRLSCAASPSTYGPSDMAWFRQAPGKQREGVATISAAGRLTYYTDSVRGRFTISRDNAKNTMYLQMNSLKPEDTAMYYCAADFAGGSSLFADYKYWGQGTQVTVSS
B2: anti-PVRIG antibody 39 (antibody, human IgG4 S228P, F234A L235A, V domains shown)
VH: QVQLVESGGGSVQAGGSLRLSCAASRYTSRTDCMGWFRQAPGKEREGVAHIDSDGIPRYVESVKGRFTISQDHAKNTLYLQMNSLKPEDSATYYCVVGFKFGDYCAPNDWGQGTQVTVSS
B3: anti-PVRIG antibody 20 (antibody, human IgG4 S228P, F234A L235A, V domains shown)
VH: DVQLVESGGGSVQAGGSLRLSCVASRYTSRTDCMGWFRQAPGKEHEGVAHIDSDGIPRYVDSVKGRFTISQDHAKNTLYLQMNSLKPEDSATYYCVVGFKFDDDYCAPNDWGQGTQVTVSS
B4: anti-PVRIG antibody 30 (antibody, human IgG4 S228P, F234A L235A, V domains shown)
VH: HVQLVESGGGSVQAGGSLRLSCEASGYSYSGDCMGWFRRAPGKERDEGVATIDNAGRIKYADSVKGRFTISHGNGKYILYLQMNSLKPEDTDMYYCAAGWTFGGNCSPADWGQGTQVTVSS
B5: anti-PVRIG antibody 151 (antibody, human IgG4 S228P, F234A L235A, V domains shown)
VH: HVQLVESGGGSVQAGGSLRLSCVASASGFTYRPYCMAWFRQAPGKEREAVAGIDIFGGTTYADSVKGRFTASRDNAGFSLFLQMNDLKPEDTAMYYCAAGDSPDGRCPPLGQGLNYWGQGTQVTVSS

What follows are binders tested against cynomolgus monkey PVRIG expressed on cells (cynomolgus monkey) (assay: FACS, HEK293 cells overexpressing target).

binding | Binder
binds | B1
binds | B2
binds | B3
binds | B4
binds | B5

These binders were tested against cynomolgus monkey PVRIG expressed on cells (cynomolgus monkey) (assay: FACS, HEK293 cells overexpressing target; N.A. = binding too strong to fit EC50).

binding | Binder
binds | B3
